Laboratory results as given in publication doi:10.1101/2021.01.28.428634.
No constants are given. Whether binding was seen depends on the method and setting. Binding seen in cells or lysates may run through a third protein. Binding can be weak; no strength is given.

By UniProt entry, the sequences of proteins in these tests, tags left out. Where a name states a change or a piece, a line headed by the entry shows the natural chain unless it says otherwise.
UniProt Q2KN98: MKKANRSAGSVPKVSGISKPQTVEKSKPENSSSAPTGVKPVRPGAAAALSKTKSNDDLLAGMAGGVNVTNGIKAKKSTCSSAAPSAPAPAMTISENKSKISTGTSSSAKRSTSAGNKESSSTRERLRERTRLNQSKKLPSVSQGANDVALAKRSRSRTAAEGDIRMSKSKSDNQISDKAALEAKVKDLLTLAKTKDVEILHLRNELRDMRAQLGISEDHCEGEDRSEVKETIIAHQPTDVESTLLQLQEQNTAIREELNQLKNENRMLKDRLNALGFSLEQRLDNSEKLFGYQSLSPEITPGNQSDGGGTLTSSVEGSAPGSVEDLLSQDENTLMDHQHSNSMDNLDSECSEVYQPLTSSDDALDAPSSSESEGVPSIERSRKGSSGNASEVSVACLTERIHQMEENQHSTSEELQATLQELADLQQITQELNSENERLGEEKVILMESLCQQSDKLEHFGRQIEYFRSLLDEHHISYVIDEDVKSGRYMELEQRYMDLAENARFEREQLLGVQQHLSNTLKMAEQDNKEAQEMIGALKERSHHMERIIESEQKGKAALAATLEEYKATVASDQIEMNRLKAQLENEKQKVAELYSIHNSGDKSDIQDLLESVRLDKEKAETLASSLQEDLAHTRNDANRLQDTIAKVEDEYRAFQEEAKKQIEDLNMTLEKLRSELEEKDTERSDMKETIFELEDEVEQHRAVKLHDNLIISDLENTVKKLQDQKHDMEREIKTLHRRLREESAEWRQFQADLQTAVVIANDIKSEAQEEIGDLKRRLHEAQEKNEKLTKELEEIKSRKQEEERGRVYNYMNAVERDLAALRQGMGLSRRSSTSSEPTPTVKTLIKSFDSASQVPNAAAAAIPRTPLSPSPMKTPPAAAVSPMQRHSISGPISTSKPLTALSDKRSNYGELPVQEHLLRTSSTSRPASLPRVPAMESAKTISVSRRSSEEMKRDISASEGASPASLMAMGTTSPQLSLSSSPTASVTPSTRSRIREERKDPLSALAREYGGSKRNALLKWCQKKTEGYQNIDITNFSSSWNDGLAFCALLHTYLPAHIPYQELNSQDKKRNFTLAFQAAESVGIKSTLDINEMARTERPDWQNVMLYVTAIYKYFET
UniProt Q61879: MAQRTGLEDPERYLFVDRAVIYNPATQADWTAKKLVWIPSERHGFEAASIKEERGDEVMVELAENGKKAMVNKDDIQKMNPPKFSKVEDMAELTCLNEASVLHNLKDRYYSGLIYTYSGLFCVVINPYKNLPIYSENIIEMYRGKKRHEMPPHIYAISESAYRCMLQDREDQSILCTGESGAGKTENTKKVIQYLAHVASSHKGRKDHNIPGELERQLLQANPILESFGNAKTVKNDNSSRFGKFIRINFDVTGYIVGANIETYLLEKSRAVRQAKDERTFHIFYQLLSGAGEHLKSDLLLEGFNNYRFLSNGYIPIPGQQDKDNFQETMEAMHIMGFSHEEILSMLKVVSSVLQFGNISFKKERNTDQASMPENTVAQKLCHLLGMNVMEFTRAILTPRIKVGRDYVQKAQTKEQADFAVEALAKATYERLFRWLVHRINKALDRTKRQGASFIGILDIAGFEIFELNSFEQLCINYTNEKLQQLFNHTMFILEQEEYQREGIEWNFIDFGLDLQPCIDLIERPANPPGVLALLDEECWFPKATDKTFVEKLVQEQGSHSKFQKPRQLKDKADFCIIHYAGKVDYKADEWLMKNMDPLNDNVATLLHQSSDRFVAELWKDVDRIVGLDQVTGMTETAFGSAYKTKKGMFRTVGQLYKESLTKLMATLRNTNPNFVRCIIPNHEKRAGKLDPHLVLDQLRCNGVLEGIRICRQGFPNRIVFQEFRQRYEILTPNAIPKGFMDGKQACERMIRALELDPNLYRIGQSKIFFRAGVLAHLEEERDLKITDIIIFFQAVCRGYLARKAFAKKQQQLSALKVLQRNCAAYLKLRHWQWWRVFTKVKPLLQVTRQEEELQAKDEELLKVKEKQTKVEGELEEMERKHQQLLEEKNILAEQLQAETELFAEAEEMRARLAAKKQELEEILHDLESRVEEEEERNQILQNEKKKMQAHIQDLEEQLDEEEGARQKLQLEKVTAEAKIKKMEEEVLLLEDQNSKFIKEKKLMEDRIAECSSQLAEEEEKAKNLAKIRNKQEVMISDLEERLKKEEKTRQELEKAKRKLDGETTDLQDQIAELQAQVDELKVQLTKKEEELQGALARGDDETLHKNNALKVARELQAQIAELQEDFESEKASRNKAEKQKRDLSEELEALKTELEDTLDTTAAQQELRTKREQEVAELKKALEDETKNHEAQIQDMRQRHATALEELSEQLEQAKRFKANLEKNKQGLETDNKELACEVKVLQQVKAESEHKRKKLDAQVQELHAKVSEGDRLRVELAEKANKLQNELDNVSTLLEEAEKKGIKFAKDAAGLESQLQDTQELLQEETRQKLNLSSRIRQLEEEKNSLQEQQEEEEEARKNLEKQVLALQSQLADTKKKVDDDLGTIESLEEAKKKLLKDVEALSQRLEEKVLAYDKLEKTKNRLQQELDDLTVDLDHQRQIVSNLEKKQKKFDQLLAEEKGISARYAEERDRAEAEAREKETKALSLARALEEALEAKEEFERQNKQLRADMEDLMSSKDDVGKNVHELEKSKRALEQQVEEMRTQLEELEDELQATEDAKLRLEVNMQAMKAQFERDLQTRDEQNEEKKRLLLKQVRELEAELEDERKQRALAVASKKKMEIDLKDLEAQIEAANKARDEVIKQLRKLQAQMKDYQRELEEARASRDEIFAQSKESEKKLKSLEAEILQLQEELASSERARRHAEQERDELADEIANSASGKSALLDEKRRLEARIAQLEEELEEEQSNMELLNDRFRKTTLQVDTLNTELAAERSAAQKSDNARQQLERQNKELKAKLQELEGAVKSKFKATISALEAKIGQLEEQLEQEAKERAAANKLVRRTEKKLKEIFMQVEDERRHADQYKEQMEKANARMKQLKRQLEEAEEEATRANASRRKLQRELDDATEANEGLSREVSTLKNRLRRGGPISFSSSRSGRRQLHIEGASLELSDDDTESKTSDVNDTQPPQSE

Biological target: SPECC1L-ΔCCD2 (mouse (endogenous in embryonic tissue)) (UniProt Q2KN98)
Test: co-IP

binding: binds
Substance: non-muscle myosin IIB (NM-IIB) component MYH10 (from UniProt Q61879 1-1976)
